The exact form of at least one protein or probe is not confirmed.
Target: Brg1 (Smarca4) helicase region D1D2 (Mus musculus) (UniProt Q3TKT4)
Assay: EMSA
Settings: 10 mM HEPES-KOH pH 7.3, 10 mM NaCl, 1 mM MgCl2, 1 mM DTT, tRNA carrier, room temperature; purified recombinant protein; protein details: MBP fusion (pMAL, amylose purified); label: biotin (NTP mix, in vitro transcribed)

Protein sequences, listed by entry. Tags and fused reporters are not part of them. Residues count along the entry.
UniProt Q3TKT4, 774-1310: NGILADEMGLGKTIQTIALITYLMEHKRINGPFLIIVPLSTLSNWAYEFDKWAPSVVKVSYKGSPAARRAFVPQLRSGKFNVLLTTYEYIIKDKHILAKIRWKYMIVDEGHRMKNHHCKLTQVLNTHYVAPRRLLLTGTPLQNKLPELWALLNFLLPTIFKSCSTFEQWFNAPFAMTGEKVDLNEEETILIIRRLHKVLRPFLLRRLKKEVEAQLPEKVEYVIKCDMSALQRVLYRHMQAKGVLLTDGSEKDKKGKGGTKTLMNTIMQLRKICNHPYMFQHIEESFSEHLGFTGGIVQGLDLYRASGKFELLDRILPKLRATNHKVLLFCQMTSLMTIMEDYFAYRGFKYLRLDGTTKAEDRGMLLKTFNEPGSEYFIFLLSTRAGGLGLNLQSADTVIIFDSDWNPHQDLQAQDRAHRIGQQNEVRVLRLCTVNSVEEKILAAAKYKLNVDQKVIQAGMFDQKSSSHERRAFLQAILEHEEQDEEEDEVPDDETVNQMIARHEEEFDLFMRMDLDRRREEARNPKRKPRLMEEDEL

“AAGAGCCCUACAGUCUGAUGAACAUUCUAGAGUAUGUGGACACAGAUGGACGCUCUGGCCACAGCCCGCAGCUCCUCCAGCUCCGCCUGCAGCAGAUUGUUGCGCCGUUCCACGAUGGCGAUGUUCUCCUUCAGGUCAUCAUUGGCACGGACAGCAUCAUCCAGCUGGAUUUGAGUGUCCUGAGGAUCAGAAAAAUGAGUGGCCUCAUUGCGGCUGCGUGUCUCCGCAUCCAGGGAGGUCUGCAGGGAGUCCACCAUCCGCAGGUGGUUGCGCUUGGCCUGCUCCAUCUCCUCAUCCUUCUCUGCCAGCUUCCUUUCGAUCUCUGCCUUGAUCUGGUUGAACUCCAGCUGGGCGCGGAGGAUCUUGCCCUCCUCGUGCUCCAGGGAGGCCUGGAAAGGAUAUAGAUUUUGCAGGCAUAUAGUCAGAGACCAGGGUGGAAGCAAGGGUGUGUCUAAAAACCAUGGCACAGAGAGCAUUUGGGGAUGGUAUACAUGACUCAGUAGGAGAUGCAGAGGAAGGAAAUGAGAAAGAGUGUGCACAAGAGAAAUGAAAGCAAGCUGAAGAGAAGGGGAUGCAGACUCCCAGGGGGGCGGAGGGAGUCAGCUUUGAAGACAAAGAGGAAAAUGAAAAGUGUUGCCAAGGAAACAGAGGCAAUGAAGCAGAGAGUAAAGGAAAAAAAAAAAAAAAACUACCACACACAGGCAGGCAGAGGUGGAAAGUGGAAUGAGCUGAAAUAGGAGUCUUUCUAAGGUACAGUAAAUAAAAUGUUUGUGUGAAGG [Mhrt779]”: binds.
